Source: PubChem BioAssay AID540276 (National Center for Advancing Translational Sciences (NCATS), 2011)
The whole screen tested about 300,000 compounds, of which about 5,400 (1.8%) were called active. The shares of active, inactive and inconclusive entries below differ from those in the screen. Calls come from the whole dose curve; tested in HEK293 cells. Potencies beside an inconclusive call are fits to weak or partial responses and may not hold up.
Potency is the fitted concentration of half-maximal effect.

Experiment: qHTS for inhibitors of binding or entry into cells for Marburg Virus
Conditions: Marburg virus pseudotyped entry inhibition, cell reporter; series mostly up to 37.8 µM
For O=C(NCc1ccco1)c1ccc(S(=O)(=O)N2CCOCC2)cc1, the Potency was inconclusive: 0.0058 µM [inhibitor, full curve, poor fit]. For CCCCOC(=O)c1ccc(NC(=O)c2cc(Cl)ccc2OC)cc1, the Potency was inconclusive: 5.01 µM [activator, single point]. For Cc1cc(C)cc(NC(=O)CN2C(=O)NC(C)(c3ccccc3)C2=O)c1 (centres undefined), the Potency was “inactive”. In the case of COc1ccc(C(=O)Nc2nnc(-c3ccccc3)s2)cc1, the Potency is reported as “inactive”. In the case of Cc1nc2ccccc2c2oc(C(=O)NCCCN3CCCC3=O)cc12, the Potency is reported as “inactive”. For CC1(C)CC(=O)C(C=NCCc2ccc(O)cc2)=C(O)C1, the Potency was “inactive”. For c1ccc(C(Cc2nc(-c3ccncc3)no2)c2ccccc2)cc1, the Potency was “inactive”. In the case of COc1cc(N)c(Cl)cc1C(=O)OCC(=O)c1cccs1, the Potency is reported as “inactive”. For COc1cc(NC(=O)C2=C(N3CCOCC3)/C(=C\c3ccc(Cl)cc3Cl)CC2)cc(OC)c1OC, the Potency was inconclusive: 0.178 µM [inhibitor, full curve]. With CC(C)c1ccc(S(=O)(=O)c2cc3cc(Br)ccc3oc2=O)cc1 the Potency was active: 11.2 µM. With COc1ccccc1CN=C1NC(=O)C(CC(=O)Nc2ccc(OC)c(OC)c2)S1 (centres undefined) the Potency was inconclusive: 1.46 µM [activator, full curve, poor fit]. With COc1cc(C)c(C)cc1S(=O)(=O)NC1CC(C)(C)NC(C)(C)C1 the Potency was “inactive”. In the case of Cc1ccccc1NC(=O)C(=O)NNC(=O)COc1ccc2ccccc2c1, the Potency is reported as “inactive”. For CCOCCCNCc1cn(-c2ccc(F)cc2F)nc1-c1ccccc1C, the Potency was inconclusive: 35.5 µM [inhibitor, single point]. With CCN(CC)c1ccc(C2C(C(=O)OC(C)C)C(=O)CC(C)(O)C2C(=O)OC(C)C)cc1 (centres undefined) the Potency was inconclusive: 16.4 µM [inhibitor, single point]. For O=C(Nc1ccc(NC(=O)c2ccc(Cl)c(S(=O)(=O)N3CCOCC3)c2)cc1)c1ccccc1, the Potency was inconclusive: 35.5 µM [activator, single point]. With CCOc1ccccc1/C=C/C(=O)N1CCN(C(=O)c2ccco2)CC1 the Potency was inconclusive: 0.794 µM [inhibitor, single point]. In the case of COc1cc(CSc2nnnn2-c2ccc(C)cc2)cc(OC)c1OC, the Potency is reported as inconclusive: 1.3 µM [inhibitor, full curve, poor fit]. In the case of c1ccc(COc2ccccc2CNC2CCCC2)cc1, the Potency is reported as inconclusive: 10 µM [inhibitor, partial curve, poor fit]. For Cc1cc(C(=O)OCC(=O)Nc2cccnc2Cl)c2ccccc2n1, the Potency was “inactive”. In the case of N#C/C(=C/c1ccc(O)c([N+](=O)[O-])c1)C(=O)Nc1ccccc1, the Potency is reported as active: 2.51 µM. For Cc1cccc(NC(=O)CCc2ccccc2)c1C, the Potency was inconclusive: 5.62 µM [activator, single point]. In the case of CCOC(=O)c1cccc(P(C)(C)=O)c1, the Potency is reported as inconclusive: 1.26 µM [activator, full curve, poor fit]. With Cc1cc(=O)oc2c3c(ccc12)OCN(Cc1ccc(Cl)cc1)C3 the Potency was inconclusive: 3.16 µM [activator, single point]. With Cc1ccc(NC(=O)Nc2cnccn2)c(C)c1 the Potency was inconclusive: 1.26 µM [activator, partial curve, poor fit]. With Cc1ccc(/C(N)=N/OC(=O)Cc2cccc3ccccc23)cc1 the Potency was inconclusive: 35.5 µM [inhibitor, single point]. With O=C(O)CN1CCNCCN(CC(=O)O)CCNCC1 the Potency was inconclusive: 15.8 µM [inhibitor, single point]. In the case of C=C(C)C1CC=C(CN2CCC(C(=O)OCC)CC2)CC1 (centres undefined), the Potency is reported as inconclusive: 20.6 µM [inhibitor, single point]. For COc1ccc(NC(=O)CCc2nc3ccccc3[nH]2)cc1, the Potency was inconclusive: 31.6 µM [activator, single point]. With C=CCN(C(=O)c1ccc2snnc2c1)c1ccccc1 the Potency was inconclusive: 11.2 µM [inhibitor, partial curve, poor fit]. With CN1C(CC(=O)Nc2ccc(Cl)cc2Cl)c2ccccc2CC1(C)C (centres undefined) the Potency was inconclusive: 7.94 µM [inhibitor, partial curve, poor fit]. For NC(=S)Cc1nc(-c2ccccc2)cs1, the Potency was inconclusive: 35.5 µM [activator, single point]. With O=S(=O)(c1ccc(Cl)cc1Cl)n1ccc2cccnc21 the Potency was inconclusive: 1.41 µM [inhibitor, partial curve, poor fit]. In the case of COc1cc2cc(CN(CCc3ccccc3C)C(=S)NCCCN(C)C)c(=O)[nH]c2cc1OC, the Potency is reported as inconclusive: 25.1 µM [inhibitor, partial curve, poor fit]. For O=C(O)c1cc(=O)c2c(OCC(O)COc3cccc4oc(C(=O)O)cc(=O)c34)cccc2o1, the Potency was inconclusive: 2.23 µM [activator, partial curve, poor fit]. For CNS(=O)(=O)c1cc(NC(=O)c2cccc3cccnc23)ccc1C, the Potency was “inactive”. In the case of CCOC(=O)c1ccc(N=Cc2nc(-c3ccccc3)oc2OC(C)=O)cc1, the Potency is reported as inconclusive: 14.6 µM [inhibitor, single point]. For Cc1cc(N2CCOCC2)nc2ccc(NC(=S)NCCC(C)C)cc12, the Potency was “inactive”. In the case of COc1ccc(-c2cc(=Nc3cccc(C(=O)O)c3)c3cc(C)ccc3o2)cc1, the Potency is reported as inconclusive: 5.01 µM [inhibitor, partial curve, poor fit]. For COc1ccc(OC)c(N/C=C/C(=O)c2ccccc2)c1, the Potency was active: 1 µM. In the case of COc1ccccc1-c1nc(SCC(=O)Nc2ccc(C)c(C)c2)n[nH]1, the Potency is reported as inconclusive: 35.5 µM [inhibitor, single point]. In the case of COc1cc(OC)cc(C(=O)N2CCN(c3ccccc3F)CC2)c1, the Potency is reported as inconclusive: 22.4 µM [inhibitor, single point]. For Cc1ccccc1-n1c(C)cc(/C=C(\C#N)C(=O)NCC2CCCO2)c1C (centres undefined), the Potency was “inactive”. For CC(=O)C(C)Oc1ccc2c3c(c(=O)oc2c1C)CCCC3 (centres undefined), the Potency was “inactive”. With Cc1nc(-c2cccc(NC(=O)c3ccc(-n4nccc4C)cc3)c2)cs1 the Potency was “inactive”. For CCN(CC)CCn1c2c(c(SCC(=O)Nc3nc(C)cs3)nc1=O)CCCC2, the Potency was inconclusive: 35.5 µM [inhibitor, single point]. In the case of Cc1cc(C)c(NC(=O)Nc2csc3c2CCCC3)c(C)c1, the Potency is reported as “inactive”. With Cc1cccc(NC(=O)COc2coc(CN3CCN(Cc4ccccc4)CC3)cc2=O)c1 the Potency was inconclusive: 0.316 µM [inhibitor, full curve, poor fit]. For CCCc1cc(N2CCN(c3ccc(OC)cc3)CC2)n2cnnc2n1, the Potency was “inactive”. With COc1ccc(CCn2c(=O)c3cccnc3n(CC(=O)Nc3c(C)cc(C)cc3C)c2=O)cc1OC the Potency was “inactive”. With CCCOc1cc(C)c(S(=O)(=O)NC2CC(C)(C)NC(C)(C)C2)cc1C the Potency was inconclusive: 8.2 µM [inhibitor, partial curve, poor fit]. With CCOP(=O)(OCC)C(C)(C)NC(=O)Nc1ccc(Cl)c(Cl)c1 the Potency was inconclusive: 11.2 µM [inhibitor, partial curve, poor fit]. With CCN(c1ccccc1)S(=O)(=O)c1cc([N+](=O)[O-])ccc1N the Potency was inconclusive: 15.8 µM [inhibitor, single point]. With Cc1noc(C)c1COc1ccc(C(=O)NCc2cccs2)cc1 the Potency was inconclusive: 0.447 µM [activator, single point]. For COc1cc(OC)c(OC)cc1CN1CCCC(C(=O)N2CCCC2)C1 (centres undefined), the Potency was inconclusive: 3.98 µM [inhibitor, full curve]. In the case of CCCc1ccc(-c2ccc(/C=C/C(=O)O)cc2)nc1, the Potency is reported as active: 0.231 µM. With O=C(NC1CCCC1)c1cc(-c2ccccc2O)on1 the Potency was “inactive”. For CCc1cccc2c(C(=O)C(NCCOC)c3ccccc3)c[nH]c12 (centres undefined), the Potency was inconclusive: 16.4 µM [inhibitor, partial curve, poor fit]. For Cc1ccccc1NC(=O)C(=O)Nc1ccccc1C, the Potency was inconclusive: 6.31 µM [activator, single point]. For Cc1[nH]c2ccccc2c1/C=C/c1nc2ccccc2c(=O)n1-c1cccc([N+](=O)[O-])c1, the Potency was inconclusive: 0.708 µM [inhibitor, full curve, poor fit]. For COc1c2c(nc3occc13)C(CC=C(C)C)(OC)C(OC(C)=O)CC2 (centres undefined), the Potency was inconclusive: 35.5 µM [inhibitor, single point]. For Cc1ccc(S(=O)(=O)N2CCN(c3nc(C)c4c(c3C#N)CC(C)(C)OC4)CC2)cc1, the Potency was inconclusive: 14.1 µM [inhibitor, partial curve, poor fit]. In the case of COc1ccc(/C=C/C(=O)c2cc(F)ccc2OC(=O)c2ccc(OC)c(OC)c2)cc1OC, the Potency is reported as inconclusive: 29.1 µM [inhibitor, single point]. In the case of COC(=O)CN1C(=O)C(O)=C(C(C)=O)C1c1ccc([N+](=O)[O-])cc1 (centres undefined), the Potency is reported as inconclusive: 6.51 µM [inhibitor, single point]. In the case of COc1ccc2[nH]cc(CCn3ccc(O)c(C/C=C/c4ccccc4)c3=O)c2c1, the Potency is reported as inconclusive: 11.2 µM [inhibitor, partial curve, poor fit]. In the case of Cc1cccc(C(=O)N2CCC(n3nnc4cc(F)ccc43)CC2)c1, the Potency is reported as inconclusive: 2.06 µM [inhibitor, partial curve, poor fit]. In the case of Cc1ccc(CNc2ccc3c(c2)ncn3C)cc1, the Potency is reported as inconclusive: 1.03 µM [activator, full curve, poor fit]. In the case of Cc1cc(S(=O)(=O)Nc2ccc(C(=O)NCC3(N(C)C)CCCCC3)cc2)ccc1F, the Potency is reported as “inactive”. With CCC(C(=O)Nc1cccc(C#N)c1)n1nc(-c2ccccc2)ccc1=O (centres undefined) the Potency was inconclusive: 25.1 µM [inhibitor, single point].
